Data taken from the supplement of paper PMC7666118.
The list shows a part of the results.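 How the source made its calls: active = dose-dependent thermal stabilisation significant by F-test of dose-response against flat model at 10% FDR; inactive = not significant.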

Biological target: T1, STX2 (UniProt P32856)
T1 sequence (whole entry): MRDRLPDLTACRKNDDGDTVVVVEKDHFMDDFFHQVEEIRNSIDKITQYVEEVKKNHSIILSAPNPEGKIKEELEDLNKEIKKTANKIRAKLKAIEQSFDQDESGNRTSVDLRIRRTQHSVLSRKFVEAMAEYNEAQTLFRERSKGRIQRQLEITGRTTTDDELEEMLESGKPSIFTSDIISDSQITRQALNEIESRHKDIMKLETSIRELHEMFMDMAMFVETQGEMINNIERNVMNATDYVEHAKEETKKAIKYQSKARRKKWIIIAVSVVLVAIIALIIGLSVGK
Assay: dose-dependent thermal stabilisation call (2D-TPP, DLPTP, 10% FDR) (binary (1 = stabilised)); higher = stabilised by the compound
Conditions: system: Jurkat gel-filtered lysate; concentration range 1-500 µM
Protocol: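 2D thermal proteome profiling in gel-filtered Jurkat E6.1 lysate (2 mg/ml) treated with NaGTP (0, 1, 10, 100, 500 uM) for 10 min at room temperature, then heated 3 min at one of 12 temperatures (42-63.9 C). Soluble protein was quantified by TMT10 MS. The value is the DLPTP call of the paper: dose-dependent thermal stabilisation over all temperatures at 10% FDR (F-test of a dose-response against a flat model); one experiment, one call per tested protein.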

| Compound | dose-dependent thermal stabilisation call |
| --- | --- |
| Nc1nc2c(ncn2[C@@H]2O[C@H](COP(=O)(O)OP(=O)(O)OP(=O)(O)O)[C@@H](O)[C@H]2O)c(=O)[nH]1 | inactive: 0 |
